# Test results from the supplement of paper PMC3334620.
# The full ranking holds about 33,000 sequences; the median of “E-score (-0.5 to 0.5)” is about -0.016, and the highest 2% start at about 0.3. This is one part of the list.
# Molecular target: T1, Yer184c (UniProt P39961)
# T1 sequence: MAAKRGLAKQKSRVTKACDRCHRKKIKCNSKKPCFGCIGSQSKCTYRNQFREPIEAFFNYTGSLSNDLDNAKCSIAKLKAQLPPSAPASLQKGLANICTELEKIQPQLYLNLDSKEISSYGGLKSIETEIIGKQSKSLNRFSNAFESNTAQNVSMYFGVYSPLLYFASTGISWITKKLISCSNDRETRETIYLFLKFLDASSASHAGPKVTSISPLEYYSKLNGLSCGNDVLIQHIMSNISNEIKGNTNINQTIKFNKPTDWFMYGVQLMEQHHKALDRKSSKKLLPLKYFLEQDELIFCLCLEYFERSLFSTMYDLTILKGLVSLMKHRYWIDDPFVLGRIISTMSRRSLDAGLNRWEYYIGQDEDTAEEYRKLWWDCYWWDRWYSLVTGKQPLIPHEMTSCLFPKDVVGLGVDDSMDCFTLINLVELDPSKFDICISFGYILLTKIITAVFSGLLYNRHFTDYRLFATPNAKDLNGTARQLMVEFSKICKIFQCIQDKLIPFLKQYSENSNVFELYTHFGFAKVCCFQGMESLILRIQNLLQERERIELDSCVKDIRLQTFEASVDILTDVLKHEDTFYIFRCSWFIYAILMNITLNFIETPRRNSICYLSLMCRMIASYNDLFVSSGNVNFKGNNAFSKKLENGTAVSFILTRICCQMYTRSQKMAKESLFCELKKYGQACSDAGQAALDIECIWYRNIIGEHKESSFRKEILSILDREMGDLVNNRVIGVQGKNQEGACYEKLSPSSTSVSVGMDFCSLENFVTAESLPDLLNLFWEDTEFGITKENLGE
# Test: PBM E-score (8-mer binding enrichment) (E-score (-0.5 to 0.5)); higher = stronger / more preferred TF binding
# Conditions: protein concentration: 100 nM; construct: GST-full length
# Description: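 Universal 'all 10-mer' protein binding microarrays (Agilent AMADID 015681) probed with GST-tagged S. cerevisiae TFs (full-length or DBD) made by in vitro transcription/translation (PURExpress), about 100-200 nM. Bound TF was detected with fluorescent anti-GST. Each ungapped 8-mer (which stands for itself and its reverse complement) is scored by the PBM enrichment score (E-score), a modified Wilcoxon-Mann-Whitney statistic from -0.5 to +0.5, computed with the Universal PBM Analysis Suite. Scale: above 0.35 generally sequence-specific binding.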
row,Sequence,PBM E-score
1,ACCAACAG,-0.284
2,ACCCCGCC,0.038
3,CCCGCCCA,-0.0857
4,AAATGCTT,0.0617
5,AATCCGCC,-0.0628
6,CCGATCGG,0.253
7,CTCCATGC,-0.19
8,ACGTTAGT,-0.0893
9,CCCCTTCA,-0.322
10,TCAGCACA,0.00162
11,ACGGATGA,0.0817
12,ATCCAGAT,-0.0292
13,GGCTAGGA,-0.166
14,GTTCGGAA,0.402
15,AGTGGCGC,-0.194
16,GCGTACCA,-0.112
17,GGCAGACC,-0.217
18,GAGTCGGC,0.0905
19,AGGGTGTG,-0.226
20,CTCTTTCA,-0.0217
21,CGTCAGAA,-0.167
22,ACCTTCGT,-0.021

# Looked up above.
# PBM E-score, ACCCCGCC is entered as 0.038
# PBM E-score, CTCCATGC is entered as -0.19
# PBM E-score, TCAGCACA is entered as 0.00162
# PBM E-score, ACGTTAGT is entered as -0.0893

# (cont.)

row,Sequence,PBM E-score
1,AACGTCGA,0.0544
2,CAAACGTG,0.0252
3,CACAATAG,0.0252
4,TAGCATAA,-0.0341
5,GGCCGGAA,0.338
6,ACGGTAGC,0.00911
7,CTCGCTTC,-0.0232
8,ACATATGG,-0.145
9,GGCGCAGA,0.0115
10,CTACAACC,-0.0932
11,ATCCCCCA,-0.372
12,GAACGCCC,-0.0103
13,ACTGGAAG,-0.127
14,GCCTAAGC,-0.0314
15,ACGAGCGC,-0.208
16,AATTTGGC,0.0884
17,AATTACGT,-0.0822
18,ATGTGATA,-0.0635
19,AAGACGGG,0.0214
20,GACCGTAA,0.0933
21,AGACGGAC,-0.086
22,CAGCTCTC,-0.127

row,Sequence,PBM E-score
1,CAGCAGTA,-0.0147
2,GCATTACC,-0.0836
3,TAGGACTA,-0.0313
4,AAATCTTG,-0.00799
5,AGGGTTTA,-0.0139
6,TCTTTAAA,0.229
7,ATTGAGGG,-0.244
8,ATAAGTAT,0.124
9,CCGCTCCC,-0.26
10,AGACTCAC,-0.118
11,CTTCGTTA,0.00966
12,CAGGTTAG,-0.18
13,ATATCTAG,-0.0546
14,ATTCGCCG,0.334
15,CGCGTAAG,0.0146
16,CGACACCA,-0.0215
17,CAGCGCCA,-0.158
18,GTAGCGAA,0.0477
19,CAATTATC,0.205
20,CGATAGAG,-0.0138
21,CGCACTCA,0.119
22,ATTCCAAA,0.015

row,Sequence,PBM E-score
1,GGCCGGCA,0.415
2,TGACCACA,-0.244
3,AAACATAG,-0.121
4,ACTTCTAG,-0.28
5,CCATTGTC,-0.104
6,AAGTGCGG,0.0901
7,ATTGGGGG,-0.238
8,AGCCGTAG,0.155
9,ACATGTTC,-0.0591
10,GCCAGTAA,-0.0434
11,ACAATAGA,0.0591
12,AATTGTGC,0.00487
13,CGGCCGCC,0.209
14,CCTATCGA,-0.107
15,CTCCCACC,-0.232
16,GAGGCCGA,0.0757
17,CGTCAGGC,-0.07
18,GCGTACGA,0.0312
19,TAATAGGA,0.0974
20,CGTCTAGA,-0.0942
